Drawing on patent US20020102606A1, this text covers binding for one molecule.

Sequences of proteins named here, by UniProt entry; tags and fusion partners are left off. Residues count along the entry.
UniProt Q16539, residues 28-360: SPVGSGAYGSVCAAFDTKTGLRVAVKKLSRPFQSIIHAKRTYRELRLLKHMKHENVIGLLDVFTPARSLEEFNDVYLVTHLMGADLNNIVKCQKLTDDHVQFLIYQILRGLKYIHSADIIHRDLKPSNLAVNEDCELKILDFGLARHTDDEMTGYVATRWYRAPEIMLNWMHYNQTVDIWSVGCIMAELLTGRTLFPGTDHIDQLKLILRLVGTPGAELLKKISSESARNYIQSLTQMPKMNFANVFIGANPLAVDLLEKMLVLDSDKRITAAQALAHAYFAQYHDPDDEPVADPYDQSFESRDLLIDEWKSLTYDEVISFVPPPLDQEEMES

For experiment [1], the target named is p38 alpha amino acids 28-360 (bait) (UniProt Q16539). The experiment is described as follows: yeast two-hybrid; prey clone found with the bait of the row.
The target is the same in experiment [2]. The experiment is described as follows: yeast two-hybrid.

These are yes or no findings as the source states them, for the method shown. Some results given as binding are weak or reduced against the parent protein; the word gives no strength.

B1: JNK2 amino acids 6-40 (prey) (enzyme)
chain: CDSQFYSVQVADSTFTVLKRYQQLKPIGSGAQGIV
As for B1, the binding result in experiment [1] and in experiment [2] was “binds” in each case.
